Measured values as given in patent US5492802A, “Dye compounds and photographic elements containing such dyes” (Eastman Kodak Company, priority 1994, dated 1996).
Where “and” joins values, the source holds several entries; their conditions need not be identical. Equal entries are not always repeated. Structures can show the parent of a compound that is named as a salt.

Columns and labels:
[1] = Dye speed in the B&W format (spectral sensitization); details: Table VI, 0.8 mmole/mole Ag, various coating sets; for SR (sensitizing ratio): speed at λ-max minus intrinsic speed at 400 nm plus 200 (log E × 100)
[2] = Dye speed in the color format (spectral sensitization); details: Table VIII, 0.4 mmole/mole Ag; for SR (sensitizing ratio) / Speed: Kodak C-41 processing
[3] = Dye stain in the color format; details: Table VIII; for Stain (maximum absorbance): at the stain λmax on the same line, 0.4 mmole/mole Ag; for Stain λmax: wavelength of the stain on the same line
[4] = Dye stain in the B&W format; details: Table VII, various coating sets; for Stain (maximum absorbance): at the λmax on the same line, RP X-OMAT processing, 0.8 mmole/mole Ag; for Stain λmax: wavelength of the stain absorbance on the same line
[5] = coating set marked #, potassium salt

Structure (SMILES)	λmax (sensitization) (nm) [1]	SR (sensitizing ratio) [1]	SR (sensitizing ratio) ([2]; set not marked #)	Sensitization λmax ([2]; set not marked #)	Stain (maximum absorbance) ([3]; set not marked #) [OD × 10^3]	Stain λmax ([3]; set not marked #)	Stain (maximum absorbance) [4]	Stain λmax [4]	Speed ([2]; set not marked #)	Stain (maximum absorbance) ([3]; coating set marked #) [OD × 10^3]	Stain λmax ([3]; coating set marked #)	Sensitization λmax ([2]; coating set marked #)	Stain (maximum absorbance) [3, 5]	Stain λmax [3, 5]
CCC(=Cc1oc2ccc(-c3ccccc3)cc2[n+]1CC)C=C1Oc2ccc(NC(C)=O)cc2N1CCCS(=O)(=O)[O-] [Dye C-6, reference compound]	548	247	223	550	53	512								
CCC(=Cc1oc2ccc(-c3ccccc3)cc2[n+]1CCS(=O)(=O)O)C=C1Oc2ccc(-c3ccccc3)cc2N1CCS(=O)(=O)[O-] [Dye C-4, reference compound]				550		512 and 545	32 OD × 10^3 and 17 OD × 10^3	505 and 540	197					
CCC(=Cc1oc2ccc(-n3cccc3)cc2[n+]1CCCS(=O)(=O)O)C=C1Oc2ccc(F)cc2N1CCCS(=O)(=O)[O-] [Dye I-44]	541						30 OD × 10^3	505		13	510			
CCC(=Cc1oc2ccc(NC(=O)c3ccccc3)cc2[n+]1CCCS(=O)(=O)[O-])C=C1Oc2ccc(F)cc2N1CCCS(=O)(=O)O [Dye I-3]	537	238	218	540	5	510	36 OD × 10^3	510	192					
CCC(=Cc1oc2ccc(NC(=O)c3ccco3)cc2[n+]1CCS(=O)(=O)O)C=C1Oc2ccc(NC(=O)c3ccco3)cc2N1CCS(=O)(=O)[O-] [Dye I-29]				550	4	515	57 OD × 10^3	512	194					
CCC(=Cc1oc2ccc(-c3ccco3)cc2[n+]1CCCS(=O)(=O)O)C=C1Oc2ccc(Cl)cc2N1CCCS(=O)(=O)[O-] [Dye I-47, Anhydro-5-chloro-9-ethyl-5'-(furan-2-yl)-3,3'-di(3-sulfopropyl)oxacarbocyanine hydroxide potassium salt]							39 OD × 10^3	510				560	35 OD × 10^3 and 19 OD × 10^3	512 and 560
CCC(=Cc1oc2ccc(-c3ccccc3)cc2[n+]1CCC(C)S(=O)(=O)O)C=C1Oc2ccc(Cl)cc2N1CCCS(=O)(=O)[O-] (stereo not drawn) [Dye C-1, reference compound]	547				37	510	48 OD × 10^3	508						
CCC(=Cc1sc2ccc(-c3ccccc3)cc2[n+]1CCCS(=O)(=O)O)C=C1Sc2ccc(-c3ccccc3)cc2N1CCCS(=O)(=O)[O-] [Dye C-10, reference compound]			189	630	65	582			142					
CCC(=Cc1oc2ccc(-c3ccco3)cc2[n+]1CCCS(=O)(=O)O)C=C1Oc2ccc(-c3ccco3)cc2N1CCCS(=O)(=O)[O-] [Dye I-50]										> 100	550	560		
CCC(=Cc1oc2ccc(-c3cccc(NC(C)=O)c3)cc2[n+]1CCC(C)S(=O)(=O)[O-])C=C1Oc2ccc(F)cc2N1CCCS(=O)(=O)O (stereo not drawn) [Dye I-14]				540	8	508	44 OD × 10^3	505	176					
O=S(=O)([O-])CCCN1C(=Cc2sc3ccc(-c4ccccc4)cc3[n+]2CCCS(=O)(=O)O)Sc2ccc(Cl)cc21 [Dye C-11, reference compound]			223	470	68	465			186					
CCC(=Cc1oc2ccc(NC(=O)c3ccco3)cc2[n+]1CCCCS(=O)(=O)O)C=C1Oc2ccc(F)cc2N1CCCS(=O)(=O)[O-] [Dye I-26]				540	2	510	38 OD × 10^3	508	185					
CCC(=Cc1oc2ccc(NC(=O)c3ccco3)cc2[n+]1CCCS(=O)(=O)O)C=C1Oc2ccc(Cl)cc2N1CCCS(=O)(=O)[O-] [Dye I-24]				540	3	510	46 OD × 10^3 and 41 OD × 10^3	508 and 550	180					
CCC(=Cc1oc2ccc(-c3ccccc3)cc2[n+]1CCCS(=O)(=O)O)C=C1Oc2ccc(F)cc2N1CCCS(=O)(=O)[O-] [Dye C-2, reference compound]	538	235	223	540	19	508	48 OD × 10^3	504	188					
CCC(=Cc1sc2ccc(NC(=O)c3ccccc3O)cc2[n+]1CCCS(=O)(=O)O)C=C1Sc2ccc(NC(=O)c3ccccc3O)cc2N1CCCS(=O)(=O)[O-] [Dye I-39]			151	550	18	580			114					
CCC(=Cc1oc2ccc(-c3cccc(NC(C)=O)c3)cc2[n+]1CCS(=O)(=O)[O-])C=C1Oc2ccc(-c3cccc(NC(C)=O)c3)cc2N1CCS(=O)(=O)O [Dye I-15]	543	247	211	540	9	510	30 OD × 10^3 and 36 OD × 10^3	485 and 510	157					
CCC(=Cc1oc2ccc(NC(C)=O)cc2[n+]1CCCS(=O)(=O)O)C=C1Oc2ccc(NC(C)=O)cc2N1CCCS(=O)(=O)[O-] [Dye C-7, reference compound]			204		0									
CCC(=Cc1oc2ccc(NC(=O)c3ccccc3O)cc2[n+]1CCC(C)S(=O)(=O)[O-])C=C1Oc2ccc(Cl)cc2N1CCCS(=O)(=O)O (stereo not drawn) [Dye I-16]	541				10	510	32 OD × 10^3 and 42 OD × 10^3	508 and 540						
